Where a chain is given by its changes, count along the chain named. No constants are given. Whether binding was seen depends on the method and setting. Binding can be weak; no strength is given. For part of these data: In cells and extracts the contact can be indirect.
T1: endogenous Perilipin 1 (Plin1) (mouse (endogenous in WAT and 3T3-L1)) (UniProt Q8CGN5)
T1 sequence: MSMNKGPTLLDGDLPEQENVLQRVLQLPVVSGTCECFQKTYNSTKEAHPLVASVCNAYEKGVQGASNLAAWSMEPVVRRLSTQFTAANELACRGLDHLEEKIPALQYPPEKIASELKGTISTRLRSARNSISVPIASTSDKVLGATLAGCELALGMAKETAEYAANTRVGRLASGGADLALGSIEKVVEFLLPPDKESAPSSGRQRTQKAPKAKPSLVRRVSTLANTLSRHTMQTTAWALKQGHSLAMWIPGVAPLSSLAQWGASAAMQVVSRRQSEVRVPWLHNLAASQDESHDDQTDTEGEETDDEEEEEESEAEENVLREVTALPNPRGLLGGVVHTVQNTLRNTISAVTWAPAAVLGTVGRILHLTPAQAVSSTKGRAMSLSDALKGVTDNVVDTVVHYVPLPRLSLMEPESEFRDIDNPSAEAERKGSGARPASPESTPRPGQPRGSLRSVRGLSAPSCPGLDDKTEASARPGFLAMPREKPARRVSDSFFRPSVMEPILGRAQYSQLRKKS

B1: endogenous Perilipin 1 (Plin1) (protein, UniProt Q8CGN5 1-517)
chain: T1 sequence
B2: in vitro translated Plin1 (protein, UniProt Q8CGN5 1-517)
chain: T1 sequence
modifications: 35S-labelled methionine
B3: Plin1-nVenus (protein, UniProt Q8CGN5 1-517)
chain: T1 sequence
B4: purified full length Plin1 (protein, UniProt Q8CGN5 1-517)
chain: T1 sequence
B5: purified Plin1SD (protein, UniProt Q8CGN5 1-517)
chain: T1 sequence with S81D, S222D, S276D
B6: in vitro translated HSL (enzyme, UniProt P54310 1-759)
chain: MDLRTMTQSLVTLAEDNMAFFSSQGPGETARRLSNVFAGVREQALGLEPTLGQLLGVAHHFDLDTETPANGYRSLVHTARCCLAHLLHKSRYVASNRKSIFFRASHNLAELEAYLAALTQLRAMAYYAQRLLTINRPGVLFFEGDEGLTADFLQEYVTLHKGCFYGRCLGFQFTPAIRPFLQTLSIGLVSFGEHYKRNETGLSVTASSLFTGGRFAIDPELRGAEFERIIQNLDVHFWKAFWNITEIEVLSSLANMASTTVRVSRLLSLPPEAFEMPLTSDPRLTVTISPPLAHTGPAPVLARLISYDLREGQDSKVLNSLAKSEGPRLELRPRPHQAPRSRALVVHIHGGGFVAQTSKSHEPYLKNWAQELGVPIFSIDYSLAPEAPFPRALEECFFAYCWAVKHCDLLGSTGERICLAGDSAGGNLCITVSLRAAAYGVRVPDGIMAAYPVTTLQSSASPSRLLSLMDPLLPLSVLSKCVSAYSGTEAEDHFDSDQKALGVMGLVQRDTSLFLRDLRLGASSWLNSFLELSGRKPQKTTSPTAESVRPTESMRRSVSEAALAQPEGLLGTDTLKKLTIKDLSNSEPSDSPEMSQSMETLGPSTPSDVNFFLRPGNSQEEAEAKDEVRPMDGVPRVRAAFPEGFHPRRSSQGVLHMPLYTSPIVKNPFMSPLLAPDSMLKTLPPVHLVACALDPMLDDSVMFARRLRDLGQPVTLKVVEDLPHGFLSLAALCRETRQATEFCVQRIRLILTPPAAPLN
modifications: 35S-labelled methionine
B7: in vitro translated ATGL (enzyme, UniProt Q8BJ56 1-486)
chain: MFPRETKWNISFAGCGFLGVYHIGVASCLREHAPFLVANATHIYGASAGALTATALVTGACLGEAGANIIEVSKEARKRFLGPLHPSFNLVKTIRGCLLKTLPADCHERANGRLGISLTRVSDGENVIISHFSSKDELIQANVCSTFIPVYCGLIPPTLQGVRYVDGGISDNLPLYELKNTITVSPFSGESDICPQDSSTNIHELRVTNTSIQFNLRNLYRLSKALFPPEPMVLREMCKQGYRDGLRFLRRNGLLNQPNPLLALPPVVPQEEDAEEAAVVEERAGEEDQLQPYRKDRILEHLPARLNEALLEACVEPKDLMTTLSNMLPVRLATAMMVPYTLPLESAVSFTIRLLEWLPDVPEDIRWMKEQTGSICQYLVMRAKRKLGDHLPSRLSEQVELRRAQSLPSVPLSCATYSEALPNWVRNNLSLGDALAKWEECQRQLLLGLFCTNVAFPPDALRMRAPASPTAADPATPQDPPGLPPC
modifications: 35S-labelled methionine
B8: purified ATGL (enzyme, UniProt Q8BJ56 1-486)
chain: B7 chain

What was measured:
[1] = target: T1, endogenous Perilipin 1 (Plin1) (mouse (endogenous in WAT and 3T3-L1)); experiment: co-IP; total LD-associated proteins of mouse WAT (aP2-ApoL6 TG or WT; fasted or fed mice for Plin1-HSL); IP with Myc, Plin1 or ApoL6 antibody, immunoblot
[2] = target: HA-tagged ApoL6 (adipoQ-ApoL6 TG mice) (mouse); experiment: co-IP; sequential IP of cross-linked lysates: first HA beads, glycine elution, then HSL or Plin1 antibody; native PAGE; immunoblot with HA antibody, MS of the high molecular weight band
[3] = target: ApoL6-HA overexpressed in differentiated 3T3-L1 adipocytes (mouse); experiment: as above
[4] = target: endogenous ApoL6 (mouse (endogenous in WAT)); experiment: co-IP; total LD-associated proteins of mouse WAT (aP2-ApoL6 TG or WT; fasted or fed mice for Plin1-HSL); IP with Myc, Plin1 or ApoL6 antibody, immunoblot
[5] = target: Myc-tagged ApoL6 (aP2-ApoL6 TG mice) (mouse); experiment: as above
[6] = target: ApoL6-GST (mouse); experiment: pull-down; bacterially expressed GST-ApoL6 on glutathione-agarose beads incubated with 35S-methionine labelled in vitro translated proteins; SDS-PAGE, autoradiography; only the target purified
[7] = target: ApoL6-cVenus (mouse); experiment: split reporter; BiFC with Venus fragments VN210 (on Plin1) and VC210 (on ApoL6), co-transfected cells, fluorescence imaging with LipidTOX
[8] = target: ApoL6-GST (mouse); experiment: pull-down; purified ApoL6-GST proteins incubated with purified protein (Plin1, Plin1SD or ATGL); GST pull-down, immunoblot; both purified

Molecule	binding [6]	binding [8]	further results
Myc-tagged ApoL6 (aP2-ApoL6 TG mice) (mouse)			binding [1]: binds
B1			binding [2]: binds; binding [3]: binds; binding [4]: binds; binding [5]: binds
B2	binds		
B3			binding [7]: binds
B4		binds	
B5		binds	
B6	no binding		
B7	no binding		
B8		no binding	
